Assay results taken from paper PMC11096176.

Amino acid sequences for entries named in this document (tags omitted).
UniProt Q92769: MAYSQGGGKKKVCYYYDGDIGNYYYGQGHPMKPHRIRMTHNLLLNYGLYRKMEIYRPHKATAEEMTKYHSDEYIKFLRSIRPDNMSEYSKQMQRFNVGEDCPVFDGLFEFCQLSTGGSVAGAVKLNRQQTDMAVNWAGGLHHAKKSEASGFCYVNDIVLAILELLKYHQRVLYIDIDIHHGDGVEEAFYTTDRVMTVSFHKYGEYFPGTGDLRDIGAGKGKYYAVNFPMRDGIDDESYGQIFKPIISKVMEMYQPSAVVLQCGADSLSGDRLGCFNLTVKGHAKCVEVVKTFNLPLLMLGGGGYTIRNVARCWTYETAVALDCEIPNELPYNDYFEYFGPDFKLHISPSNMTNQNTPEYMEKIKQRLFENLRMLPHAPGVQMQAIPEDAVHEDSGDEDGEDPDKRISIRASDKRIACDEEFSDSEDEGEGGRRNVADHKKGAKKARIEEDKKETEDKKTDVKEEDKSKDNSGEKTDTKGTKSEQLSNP

Molecular target: T1, Flag-tagged TBX3 (UniProt O15119)
T1 sequence: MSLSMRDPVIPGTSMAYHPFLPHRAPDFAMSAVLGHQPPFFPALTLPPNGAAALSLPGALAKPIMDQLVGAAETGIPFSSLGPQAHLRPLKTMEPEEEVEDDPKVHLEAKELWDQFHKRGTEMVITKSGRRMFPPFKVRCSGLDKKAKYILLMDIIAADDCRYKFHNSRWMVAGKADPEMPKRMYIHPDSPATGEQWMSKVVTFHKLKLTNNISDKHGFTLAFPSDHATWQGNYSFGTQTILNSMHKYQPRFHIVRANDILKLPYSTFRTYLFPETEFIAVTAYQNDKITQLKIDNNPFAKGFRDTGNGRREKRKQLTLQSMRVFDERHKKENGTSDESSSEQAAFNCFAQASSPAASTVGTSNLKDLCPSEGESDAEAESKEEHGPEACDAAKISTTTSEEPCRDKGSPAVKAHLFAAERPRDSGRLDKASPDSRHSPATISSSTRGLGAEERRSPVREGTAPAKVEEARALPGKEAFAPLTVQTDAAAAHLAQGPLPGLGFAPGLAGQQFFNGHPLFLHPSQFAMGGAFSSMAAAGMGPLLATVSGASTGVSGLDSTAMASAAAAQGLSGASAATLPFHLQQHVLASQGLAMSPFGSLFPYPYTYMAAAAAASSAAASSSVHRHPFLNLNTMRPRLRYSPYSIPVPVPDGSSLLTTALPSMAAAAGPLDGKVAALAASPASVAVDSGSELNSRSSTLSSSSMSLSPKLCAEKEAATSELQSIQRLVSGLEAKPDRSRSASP
Test: affinity purification with mass spectrometry; Flag-TBX3 over-expressed in HEK293T for 48 h; lysate (50 mM Tris-HCl pH 7.4, 150 mM NaCl, 5 mM EDTA, 0.5% NP-40) on Flag-M2 beads, eluted with FLAG peptide, SDS-PAGE, in-gel digestion

## HDAC2 (endogenous, found with Flag-TBX3 by IP-MS) (from UniProt Q92769 1-488) (enzyme)
  binding: binds

B1: USP15 (endogenous, found with Flag-TBX3 by IP-MS) (enzyme, UniProt Q9Y4E8 1-981)
chain: MAEGGAADLDTQRSDIATLLKTSLRKGDTWYLVDSRWFKQWKKYVGFDSWDKYQMGDQNVYPGPIDNSGLLKDGDAQSLKEHLIDELDYILLPTEGWNKLVSWYTLMEGQEPIARKVVEQGMFVKHCKVEVYLTELKLCENGNMNNVVTRRFSKADTIDTIEKEIRKIFSIPDEKETRLWNKYMSNTFEPLNKPDSTIQDAGLYQGQVLVIEQKNEDGTWPRGPSTPKSPGASNFSTLPKISPSSLSNNYNNMNNRNVKNSNYCLPSYTAYKNYDYSEPGRNNEQPGLCGLSNLGNTCFMNSAIQCLSNTPPLTEYFLNDKYQEELNFDNPLGMRGEIAKSYAELIKQMWSGKFSYVTPRAFKTQVGRFAPQFSGYQQQDCQELLAFLLDGLHEDLNRIRKKPYIQLKDADGRPDKVVAEEAWENHLKRNDSIIVDIFHGLFKSTLVCPECAKISVTFDPFCYLTLPLPMKKERTLEVYLVRMDPLTKPMQYKVVVPKIGNILDLCTALSALSGIPADKMIVTDIYNHRFHRIFAMDENLSSIMERDDIYVFEININRTEDTEHVIIPVCLREKFRHSSYTHHTGSSLFGQPFLMAVPRNNTEDKLYNLLLLRMCRYVKISTETEETEGSLHCCKDQNINGNGPNGIHEEGSPSEMETDEPDDESSQDQELPSENENSQSEDSVGGDNDSENGLCTEDTCKGQLTGHKKRLFTFQFNNLGNTDINYIKDDTRHIRFDDRQLRLDERSFLALDWDPDLKKRYFDENAAEDFEKHESVEYKPPKKPFVKLKDCIELFTTKEKLGAEDPWYCPNCKEHQQATKKLDLWSLPPVLVVHLKRFSYSRYMRDKLDTLVDFPINDLDMSEFLINPNAGPCRYNLIAVSNHYGGMGGGHYTAFAKNKDDGKWYYFDDSSVSTASEDQIVSKAAYVLFYQRQDTFSGTGFFPLDRETKGASAATGIPLESDEDSNDNDNDIENENCMHTN
  binding: binds

Results are given in words; binding and its absence hold for the method and conditions named. Binding seen in cells or lysates may run through a third protein. Here binding means that the protein was enriched with, or labelled near, the bait; the list need not be complete. Tags and fused reporters may be left off the sequences shown.
